Experimental findings from PMC5650626, “Deletion of MtrA Inhibits Cellular Development of Streptomyces coelicolor and Alters Expression of Developmental Regulatory Genes” are described below.

The target of data set [1] is T1, MtrA (MtrASCO) (Streptomyces coelicolor M145) (UniProt Q9KYW8).
T1 sequence (looked up): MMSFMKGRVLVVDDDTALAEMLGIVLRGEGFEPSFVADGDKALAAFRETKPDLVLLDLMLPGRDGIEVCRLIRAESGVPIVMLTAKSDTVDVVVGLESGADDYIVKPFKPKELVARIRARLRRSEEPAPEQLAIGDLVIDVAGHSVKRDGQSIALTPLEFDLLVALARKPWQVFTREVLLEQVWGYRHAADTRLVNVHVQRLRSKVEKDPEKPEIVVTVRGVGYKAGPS
Put plainly: DNase I footprinting. The settings on record: recombinant protein; residues 1-229; label: FAM; probe letters rebuilt from the primers and the genome; part of a longer molecule.

In data set [2] the target is T1, MtrA (MtrASCO) (Streptomyces coelicolor M145). Kind of data set: EMSA. The settings on record: EMSA: 20 mM Tris-HCl pH 8.0, 2 mM EDTA, 20 mM KCl, 0.5 mM DTT, 4% Ficoll-400, 2 ug poly(dI-dC), 50 fmol probe, 20 ul, room temperature 15 min, footprinting 25 C, 30 min, recombinant protein, residues 1-229, label: biotin-11-UTP 3' end.
Setting [3] is: severely reduced, 2.1-6.3 ug MtrA.

For some of these results: A weaker result is weaker than the reference pair of the same experiment. For some of these results: Where a protein sequence is shown, tags need not be part of it. For some of these results: The exact form of at least one protein or probe is not confirmed.

As to “CACCAGCCGTCGTTCATCGTTCCGGGCAGGGGGTCCGCACGTCCGGAGGAGGTTCCGTCACTTTGTCGACACGGCCACTTTCGGCCTCGTATCGACAAAGTGCGGAACCGTTCGATCTTCGAATGATCGACAGTGTGTCCGAATTGCTCGGATTGTTACTCACCAGATCGTGATCATTCTCTAAAGGCGGACGCGTTCGGTGCCGAAGACGACTGTGACCTTGAAAGCACGGTTCGTCCCGGCTTAAACCCCATGAGCCGGCCCCGTCCCCGCACCCCAGGAGGCCTGGTGTC (double strand) [whiI footprinting probe]”, the binding result in data set [1] was “binds”.
Take “GATCTGGTGAACACGAATCCGAGCAATTCGGACACACTGTCGATCATTCGAAGATCGAA (double strand) [whiI-aM 59bp (SCO6029-aM)]”: the binding result in data set [2] (setting [3]) is given as “binds more weakly”.
As to “GGACATATGGCTCCCCGGACAAGGTGTCGACGCGGCAGGCTGTGTTGTCGGCCGCGCGGCTGGTAACTCACTGTGAGGTTACGCAGCGTTACTCTGCTGCGTCAAGCCGAATGGTCCGCACCGACTCTTCCGTGGTATTCGCCATCCATTACTCCGTGCGGGTGATCGATGTGGGGCAGAGGAGTGACGGGGGAGTGTCAGGGGGGTCATCGGAGAGGTTCTGTGAGCCTGCTACCGTAGGTGGCGCATATCCGACGTCCTTTAAGGTCCGTCCCGTGAGGC (double strand) [bldD footprinting probe]”, the binding result in data set [1] is recorded as “binds”.
In the case of “TCACAGTCGTCTTCGGCACCGAACGCGTCCGCCTTTAGAGAATGACCGTGATCTGGTGA (double strand) [whiI-bM 59bp (SCO6029-bM)]”, the binding result in data set [2] (setting [3]) is recorded as “binds more weakly”.
For the sequence “TGACGCAGCAGAACAGCGCTGCGTAACCTCACAGTGAGTTACCAGCCGCGCGGCCGACA (double strand) [SCO1489-M3 59bp]”, in data set [2] (markedly reduced, 2.1-6.3 ug MtrA), the binding result is “binds more weakly”.
Turning to “TGACGCAGCAGAGTAACGCTGCACAGCCTCACAGTGAGTTACCAGCCGCGCGGCCGACA (double strand) [SCO1489-M1 59bp]”, in data set [2] (markedly decreased, 2.1-6.3 ug MtrA), the binding result is recorded as “binds more weakly”.
Consider “TGACGCAGCAGAGTAACGCTGCGTAACCTCACAACGGGTTACCAGCCGCGCGGCCGACA (double strand) [SCO1489-M2 59bp]”, for which the binding result in data set [2] (only slightly reduced) is “binds more weakly”.
